According to publication PMC9246382:
No constants are given. Whether binding was seen depends on the method and setting. In cells and extracts the contact can be indirect. Some results given as binding are weak or reduced against the parent protein; the word gives no strength. One block for each substance: values may come before it.

Protein sequences, listed by entry. Tags and fused reporters are not part of them. Lines headed by an entry give the natural chain unless they say otherwise; changes in a name come on top. Residues count along the entry.
UniProt O88696, residues 53-272: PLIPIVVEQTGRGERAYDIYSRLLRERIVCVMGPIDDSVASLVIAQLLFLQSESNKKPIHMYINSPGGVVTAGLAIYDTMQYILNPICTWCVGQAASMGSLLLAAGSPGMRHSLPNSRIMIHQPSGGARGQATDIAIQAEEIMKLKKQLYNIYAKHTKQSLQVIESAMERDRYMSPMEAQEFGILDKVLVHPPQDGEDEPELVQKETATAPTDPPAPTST
UniProt Q16740: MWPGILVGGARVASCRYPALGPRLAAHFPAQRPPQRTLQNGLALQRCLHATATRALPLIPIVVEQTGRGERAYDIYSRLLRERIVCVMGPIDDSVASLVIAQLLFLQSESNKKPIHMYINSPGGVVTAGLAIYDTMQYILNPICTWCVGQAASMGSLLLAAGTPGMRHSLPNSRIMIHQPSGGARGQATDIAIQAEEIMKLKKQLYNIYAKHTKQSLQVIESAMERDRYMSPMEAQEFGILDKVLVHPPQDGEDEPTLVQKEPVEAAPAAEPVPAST

Columns and labels:
[1] = target: HSP60, endogenous in murine TKO prostate tumors (mouse (endogenous in TKO prostate tumors)) (UniProt P63038); assay: co-IP; endogenous proteins in TKO prostatic tumor tissues (mouse)
[2] = target: heat shock protein 60 (HSP60), endogenous in human prostate cancer cells (human (endogenous in LNCaP, PC-3, DU145)) (UniProt P10809); assay: proximity ligation; cultured PCa cells (PC-3) and patient PCa specimens on a tissue microarray; also DCEM1-treated PC-3 cells and PC-3 xenograft tumors
[3] = target: heat shock protein 60 (HSP60), endogenous in human prostate cancer cells (human (endogenous in LNCaP, PC-3, DU145)) (UniProt P10809); assay: co-IP; double IP: first IP with anti-HSP60 antibody, then ClpP IP or HSP10 IP in the eluate, Western blotting for HSP60, HSP10 and ClpP
[4] = target: heat shock protein 60 (HSP60), endogenous in human prostate cancer cells (human (endogenous in LNCaP, PC-3, DU145)) (UniProt P10809); assay: co-IP; endogenous proteins in LNCaP, PC-3 and DU145 cells; also after ClpP overexpression and after DCEM1 treatment for 24 hours (DCEM1 inhibited HSP60-ClpP dose-dependently, not HSP60-HSP10)
[5] = target: HSP60 construct with a V5 tag (unchanged parent) (UniProt P10809); assay: co-IP; V5-tagged HSP60 constructs cotransfected with FLAG-tagged ClpP in PC-3 cells; IP with anti-V5 or anti-FLAG antibody

- binding [1]: binds
Substance: ClpP, endogenous in murine TKO prostate tumors (from UniProt O88696 53-272) (enzyme)

- binding [2]: binds
- binding [3]: binds
- binding [4]: binds
Substance: caseinolytic protease P (ClpP), endogenous in human prostate cancer cells (from UniProt Q16740 57-277) (enzyme)

- binding [5]: binds
Substance: ClpP construct with a FLAG tag (from UniProt Q16740 57-277) (enzyme)
